We go through 16 molecules from article PMC8789201.

The chains behind the UniProt entries cited, without tags or fusion partners. Where a name states a change or a piece, a line headed by the entry shows the natural chain unless it says otherwise. Residues count along the entry.
UniProt P43403: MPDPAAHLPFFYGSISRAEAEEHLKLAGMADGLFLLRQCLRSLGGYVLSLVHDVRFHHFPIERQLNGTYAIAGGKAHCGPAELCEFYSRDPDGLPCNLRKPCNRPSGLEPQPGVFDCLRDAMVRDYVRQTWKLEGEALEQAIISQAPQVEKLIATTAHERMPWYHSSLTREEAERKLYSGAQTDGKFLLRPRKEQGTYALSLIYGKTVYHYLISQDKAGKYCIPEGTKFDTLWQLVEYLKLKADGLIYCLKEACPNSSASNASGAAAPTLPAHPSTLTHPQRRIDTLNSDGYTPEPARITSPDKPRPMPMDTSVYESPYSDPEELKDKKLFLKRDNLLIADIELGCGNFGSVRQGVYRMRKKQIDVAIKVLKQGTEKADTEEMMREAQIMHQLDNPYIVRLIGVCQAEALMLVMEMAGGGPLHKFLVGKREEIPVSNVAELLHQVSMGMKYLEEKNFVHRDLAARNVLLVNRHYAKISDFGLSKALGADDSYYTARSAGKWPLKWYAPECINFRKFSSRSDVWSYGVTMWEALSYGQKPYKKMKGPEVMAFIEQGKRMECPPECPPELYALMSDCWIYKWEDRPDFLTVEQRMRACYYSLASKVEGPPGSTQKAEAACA
UniProt P09693, residues 23-182: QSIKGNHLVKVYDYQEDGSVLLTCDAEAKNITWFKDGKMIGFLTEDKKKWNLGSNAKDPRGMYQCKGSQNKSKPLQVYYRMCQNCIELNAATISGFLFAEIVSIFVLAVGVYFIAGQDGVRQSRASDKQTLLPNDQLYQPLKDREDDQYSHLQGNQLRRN
UniProt P31946: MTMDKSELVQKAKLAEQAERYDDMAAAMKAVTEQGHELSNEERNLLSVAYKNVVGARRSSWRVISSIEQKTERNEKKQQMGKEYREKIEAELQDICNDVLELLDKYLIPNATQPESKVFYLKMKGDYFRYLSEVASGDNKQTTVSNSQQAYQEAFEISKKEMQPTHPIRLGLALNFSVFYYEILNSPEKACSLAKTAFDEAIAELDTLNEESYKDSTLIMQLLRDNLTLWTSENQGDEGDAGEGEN
UniProt P07766, residues 23-207: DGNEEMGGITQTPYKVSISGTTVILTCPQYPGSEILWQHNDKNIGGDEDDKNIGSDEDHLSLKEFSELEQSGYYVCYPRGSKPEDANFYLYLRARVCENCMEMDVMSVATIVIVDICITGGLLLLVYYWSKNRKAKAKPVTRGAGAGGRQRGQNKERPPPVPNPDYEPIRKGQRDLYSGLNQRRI
UniProt O75791: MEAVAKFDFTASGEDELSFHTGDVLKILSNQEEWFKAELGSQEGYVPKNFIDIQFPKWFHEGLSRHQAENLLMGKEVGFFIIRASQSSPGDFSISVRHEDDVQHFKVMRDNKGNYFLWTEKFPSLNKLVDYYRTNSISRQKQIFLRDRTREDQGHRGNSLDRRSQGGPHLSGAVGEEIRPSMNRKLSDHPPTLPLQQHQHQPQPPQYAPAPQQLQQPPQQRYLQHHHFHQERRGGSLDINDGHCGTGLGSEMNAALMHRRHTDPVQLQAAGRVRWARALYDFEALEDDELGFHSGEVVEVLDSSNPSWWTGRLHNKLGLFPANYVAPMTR
UniProt P62993: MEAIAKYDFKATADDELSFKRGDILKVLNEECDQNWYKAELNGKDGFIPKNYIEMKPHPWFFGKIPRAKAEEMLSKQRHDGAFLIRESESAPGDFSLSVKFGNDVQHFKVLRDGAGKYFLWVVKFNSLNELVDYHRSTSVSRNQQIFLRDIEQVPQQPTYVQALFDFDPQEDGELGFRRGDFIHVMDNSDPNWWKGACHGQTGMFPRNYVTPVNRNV
UniProt Q9UJ70: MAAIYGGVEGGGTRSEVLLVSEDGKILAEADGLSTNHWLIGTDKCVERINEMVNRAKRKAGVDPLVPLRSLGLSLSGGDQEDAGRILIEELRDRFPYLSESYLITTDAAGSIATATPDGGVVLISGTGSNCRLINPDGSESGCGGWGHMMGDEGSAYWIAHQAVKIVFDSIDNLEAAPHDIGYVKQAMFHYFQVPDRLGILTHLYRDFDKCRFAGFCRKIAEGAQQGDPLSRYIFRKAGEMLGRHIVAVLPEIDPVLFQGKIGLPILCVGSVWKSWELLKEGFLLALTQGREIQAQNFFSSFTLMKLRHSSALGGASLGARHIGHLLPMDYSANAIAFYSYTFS
UniProt P62258: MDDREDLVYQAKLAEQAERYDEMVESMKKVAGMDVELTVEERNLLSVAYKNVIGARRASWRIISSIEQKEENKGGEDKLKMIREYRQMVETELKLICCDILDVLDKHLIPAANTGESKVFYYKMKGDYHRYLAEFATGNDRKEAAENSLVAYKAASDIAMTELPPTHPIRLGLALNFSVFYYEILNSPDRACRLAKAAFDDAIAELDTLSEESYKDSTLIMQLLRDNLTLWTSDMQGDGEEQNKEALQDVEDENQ
UniProt Q92918: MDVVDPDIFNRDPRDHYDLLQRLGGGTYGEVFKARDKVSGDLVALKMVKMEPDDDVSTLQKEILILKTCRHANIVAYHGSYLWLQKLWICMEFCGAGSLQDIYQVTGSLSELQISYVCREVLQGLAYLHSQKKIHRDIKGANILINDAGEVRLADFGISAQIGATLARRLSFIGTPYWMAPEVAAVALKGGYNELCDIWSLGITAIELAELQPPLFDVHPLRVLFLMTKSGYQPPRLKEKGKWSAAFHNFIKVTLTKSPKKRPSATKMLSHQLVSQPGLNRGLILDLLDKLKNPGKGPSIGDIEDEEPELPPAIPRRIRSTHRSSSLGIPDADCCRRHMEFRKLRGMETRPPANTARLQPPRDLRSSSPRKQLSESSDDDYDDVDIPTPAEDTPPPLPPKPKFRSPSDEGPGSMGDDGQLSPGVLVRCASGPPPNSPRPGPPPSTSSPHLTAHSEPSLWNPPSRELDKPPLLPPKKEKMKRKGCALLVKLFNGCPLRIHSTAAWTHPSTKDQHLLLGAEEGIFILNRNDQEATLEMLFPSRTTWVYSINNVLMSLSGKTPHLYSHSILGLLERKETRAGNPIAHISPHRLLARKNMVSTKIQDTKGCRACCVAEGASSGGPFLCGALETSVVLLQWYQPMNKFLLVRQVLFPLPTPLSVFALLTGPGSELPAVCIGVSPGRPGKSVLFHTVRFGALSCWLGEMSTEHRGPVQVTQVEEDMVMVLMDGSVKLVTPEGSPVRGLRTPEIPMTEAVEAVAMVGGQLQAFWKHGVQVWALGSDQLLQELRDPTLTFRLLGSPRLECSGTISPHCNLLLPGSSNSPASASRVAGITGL
UniProt O43639: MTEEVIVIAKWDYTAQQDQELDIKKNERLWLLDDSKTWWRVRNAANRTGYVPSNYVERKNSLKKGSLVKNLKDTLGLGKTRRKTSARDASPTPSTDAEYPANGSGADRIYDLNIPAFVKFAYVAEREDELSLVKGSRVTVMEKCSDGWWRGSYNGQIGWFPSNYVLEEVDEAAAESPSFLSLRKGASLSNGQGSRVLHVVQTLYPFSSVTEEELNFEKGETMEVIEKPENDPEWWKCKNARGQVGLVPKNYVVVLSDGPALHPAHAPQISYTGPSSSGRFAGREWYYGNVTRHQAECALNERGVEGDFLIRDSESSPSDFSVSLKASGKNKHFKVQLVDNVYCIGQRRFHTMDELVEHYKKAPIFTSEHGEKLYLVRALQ
UniProt P04234, residues 22-171: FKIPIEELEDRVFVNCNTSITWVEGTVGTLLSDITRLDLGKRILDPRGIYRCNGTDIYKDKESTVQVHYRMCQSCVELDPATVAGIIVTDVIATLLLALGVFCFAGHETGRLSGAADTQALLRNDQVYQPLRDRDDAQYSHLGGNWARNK

These are yes or no findings as the source states them, for the method shown. Binding seen in cells or lysates may run through a third protein. These calls come from enrichment with a bait or labelling near it, and not all partners need be listed. For some assays here: Sequences can lack the tags named with a protein.

In assay [1] the target is ZAP-70^OST (human) (UniProt P43403). The experiment in a line: affinity purification with mass spectrometry; OST-tagged bait in n-dodecyl-β-D-maltoside lysates of expanded primary human CD4+ T cells, unstimulated or stimulated with anti-CD3 plus anti-CD28 for 30, 60, 120 and 300 s; captured on Strep-Tactin Sepharose 1.5 h at 4°C, eluted with 2.5 mM D-biotin, LC-MS/MS; compared with mock-edited control cells.

Assay [2] has the same target. In words: affinity purification with mass spectrometry; OST-tagged bait in n-dodecyl-β-D-maltoside lysates of expanded primary human CD8+ T cells, unstimulated or stimulated with anti-CD3 plus anti-CD28 for 30, 60, 120 and 300 s; captured on Strep-Tactin Sepharose, eluted with D-biotin, LC-MS/MS; compared with control cells.
In assay [3] the target is T1, OST-tagged SLP76 (SLP-76^OST) (human) (UniProt Q13094).
T1 sequence: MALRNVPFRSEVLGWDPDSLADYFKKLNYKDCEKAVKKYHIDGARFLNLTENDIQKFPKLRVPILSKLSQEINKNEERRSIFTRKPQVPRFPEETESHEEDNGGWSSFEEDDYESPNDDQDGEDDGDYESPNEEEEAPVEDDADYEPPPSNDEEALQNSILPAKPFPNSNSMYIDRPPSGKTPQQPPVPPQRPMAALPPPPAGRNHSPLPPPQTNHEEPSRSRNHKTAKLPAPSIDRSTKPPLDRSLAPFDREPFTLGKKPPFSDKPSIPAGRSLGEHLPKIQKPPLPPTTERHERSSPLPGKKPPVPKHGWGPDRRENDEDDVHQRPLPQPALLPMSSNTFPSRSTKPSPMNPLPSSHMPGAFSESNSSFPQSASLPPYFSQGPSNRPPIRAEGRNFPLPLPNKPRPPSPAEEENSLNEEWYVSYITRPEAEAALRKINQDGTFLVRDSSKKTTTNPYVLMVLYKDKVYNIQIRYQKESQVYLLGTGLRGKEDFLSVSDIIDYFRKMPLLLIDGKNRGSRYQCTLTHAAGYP
In words: affinity purification with mass spectrometry; OST-tagged bait in n-dodecyl-β-D-maltoside lysates of expanded primary human CD4+ T cells, unstimulated or stimulated with anti-CD3 plus anti-CD28 for 30, 60, 120 and 300 s; captured on Strep-Tactin Sepharose 1.5 h at 4°C, eluted with 2.5 mM D-biotin, LC-MS/MS; compared with mock-edited control cells.

Assay [4] concerns the target T1, OST-tagged SLP76 (SLP-76^OST) (human). In words: affinity purification with mass spectrometry; OST-tagged bait in n-dodecyl-β-D-maltoside lysates of expanded primary human CD8+ T cells, unstimulated or stimulated with anti-CD3 plus anti-CD28 for 30, 60, 120 and 300 s; captured on Strep-Tactin Sepharose, eluted with D-biotin, LC-MS/MS; compared with control cells.
In assay [5] the target is T2, VAV1^OST (human) (UniProt P15498).
T2 sequence: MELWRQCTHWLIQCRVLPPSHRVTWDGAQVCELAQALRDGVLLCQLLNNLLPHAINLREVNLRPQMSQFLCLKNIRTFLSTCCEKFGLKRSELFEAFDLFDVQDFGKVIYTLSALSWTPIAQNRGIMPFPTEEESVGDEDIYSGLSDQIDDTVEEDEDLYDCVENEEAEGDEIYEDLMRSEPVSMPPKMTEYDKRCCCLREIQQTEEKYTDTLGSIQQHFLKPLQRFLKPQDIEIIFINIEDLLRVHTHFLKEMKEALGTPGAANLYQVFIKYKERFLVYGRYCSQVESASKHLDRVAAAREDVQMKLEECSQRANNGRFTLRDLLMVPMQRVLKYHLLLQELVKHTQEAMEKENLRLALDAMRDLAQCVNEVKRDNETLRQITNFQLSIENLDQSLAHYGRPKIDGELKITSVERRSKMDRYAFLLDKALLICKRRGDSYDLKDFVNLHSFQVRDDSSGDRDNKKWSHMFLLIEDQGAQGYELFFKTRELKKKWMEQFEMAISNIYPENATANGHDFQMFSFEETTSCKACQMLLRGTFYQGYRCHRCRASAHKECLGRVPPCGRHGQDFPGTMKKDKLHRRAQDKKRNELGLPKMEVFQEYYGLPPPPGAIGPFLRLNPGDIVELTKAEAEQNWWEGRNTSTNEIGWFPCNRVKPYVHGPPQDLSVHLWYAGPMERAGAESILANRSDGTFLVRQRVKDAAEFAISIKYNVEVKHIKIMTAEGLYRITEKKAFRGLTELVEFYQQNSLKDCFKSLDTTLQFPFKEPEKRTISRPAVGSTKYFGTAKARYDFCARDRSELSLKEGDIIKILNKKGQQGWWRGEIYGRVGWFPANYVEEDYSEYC
In words: affinity purification with mass spectrometry; OST-tagged bait in n-dodecyl-β-D-maltoside lysates of expanded primary human CD4+ T cells, unstimulated or stimulated with anti-CD3 plus anti-CD28 for 30, 60, 120 and 300 s; captured on Strep-Tactin Sepharose 1.5 h at 4°C, eluted with 2.5 mM D-biotin, LC-MS/MS; compared with mock-edited control cells.

“CD3γ subunit of the TCR-CD3 complex (from UniProt P09693 23-182)”: the binding result in assay [1] and in assay [2] was “binds” each time. For the molecule 14-3-3 β (from UniProt P31946 1-246), the binding result in assay [3] and in assay [4] was “binds” throughout.

For the molecule “CD3ε subunit of the TCR-CD3 complex (from UniProt P07766 23-207)”, the binding entry in assay [1] and in assay [2] was “binds” throughout. With “GRAP2 cytosolic adaptor (from UniProt O75791 1-330)”, in assay [5], the binding result is “binds”.

Take “GRB2 cytosolic adaptor (from UniProt P62993 1-217)”: in assay [5], the binding entry is recorded as “binds”. NAGK (from UniProt Q9UJ70 1-344): the binding entry in assay [3] is recorded as “binds”. In the case of “CD3ζ subunit of the TCR-CD3 complex (from UniProt P20963-1 22-164)”, the binding entry in assay [1] and in assay [2] was “binds” throughout. Take 14-3-3 ε (from UniProt P62258 1-255): the binding result in assay [3] and in assay [4] was “binds” each time. On to “serine-threonine protein kinase hematopoietic progenitor kinase 1 (from UniProt Q92918 1-833) (enzyme)”, for which the binding entry in assay [3] and in assay [4] was “binds” throughout. On to “NCK2 cytosolic adaptor (from UniProt O43639 1-380)”, for which the binding entry in assay [3] was “binds”.

As to “CD3δ subunit of the TCR-CD3 complex (from UniProt P04234 22-171)”, the binding entry in assay [1] and in assay [2] was “binds” throughout.

B1: phospholipase PLC-γ1 (enzyme, UniProt P19174 1-1290)
chain: MAGAASPCANGCGPGAPSDAEVLHLCRSLEVGTVMTLFYSKKSQRPERKTFQVKLETRQITWSRGADKIEGAIDIREIKEIRPGKTSRDFDRYQEDPAFRPDQSHCFVILYGMEFRLKTLSLQATSEDEVNMWIKGLTWLMEDTLQAPTPLQIERWLRKQFYSVDRNREDRISAKDLKNMLSQVNYRVPNMRFLRERLTDLEQRSGDITYGQFAQLYRSLMYSAQKTMDLPFLEASTLRAGERPELCRVSLPEFQQFLLDYQGELWAVDRLQVQEFMLSFLRDPLREIEEPYFFLDEFVTFLFSKENSVWNSQLDAVCPDTMNNPLSHYWISSSHNTYLTGDQFSSESSLEAYARCLRMGCRCIELDCWDGPDGMPVIYHGHTLTTKIKFSDVLHTIKEHAFVASEYPVILSIEDHCSIAQQRNMAQYFKKVLGDTLLTKPVEISADGLPSPNQLKRKILIKHKKLAEGSAYEEVPTSMMYSENDISNSIKNGILYLEDPVNHEWYPHYFVLTSSKIYYSEETSSDQGNEDEEEPKEVSSSTELHSNEKWFHGKLGAGRDGRHIAERLLTEYCIETGAPDGSFLVRESETFVGDYTLSFWRNGKVQHCRIHSRQDAGTPKFFLTDNLVFDSLYDLITHYQQVPLRCNEFEMRLSEPVPQTNAHESKEWYHASLTRAQAEHMLMRVPRDGAFLVRKRNEPNSYAISFRAEGKIKHCRVQQEGQTVMLGNSEFDSLVDLISYYEKHPLYRKMKLRYPINEEALEKIGTAEPDYGALYEGRNPGFYVEANPMPTFKCAVKALFDYKAQREDELTFIKSAIIQNVEKQEGGWWRGDYGGKKQLWFPSNYVEEMVNPVALEPEREHLDENSPLGDLLRGVLDVPACQIAIRPEGKNNRLFVFSISMASVAHWSLDVAADSQEELQDWVKKIREVAQTADARLTEGKIMERRKKIALELSELVVYCRPVPFDEEKIGTERACYRDMSSFPETKAEKYVNKAKGKKFLQYNRLQLSRIYPKGQRLDSSNYDPLPMWICGSQLVALNFQTPDKPMQMNQALFMTGRHCGYVLQPSTMRDEAFDPFDKSSLRGLEPCAISIEVLGARHLPKNGRGIVCPFVEIEVAGAEYDSTKQKTEFVVDNGLNPVWPAKPFHFQISNPEFAFLRFVVYEEDMFSDQNFLAQATFPVKGLKTGYRAVPLKNNYSEDLELASLLIKIDIFPAKENGDLSPFSGTSLRERGSDASGQLFHGRAREGSFESRYQQPFEDFRISQEHLADHFDSRERRAPRRTRVNGDNRL
B1: the binding entry in assay [3] and in assay [4] was “binds” in each case.

B2: ubiquitin-associated and SH3 domain-containing protein UBASH3A (protein, UniProt P57075 1-661)
chain: MAAGETQLYAKVSNKLKSRSSPSLLEPLLAMGFPVHTALKALAATGRKTAEEALAWLHDHCNDPSLDDPIPQEYALFLCPTGPLLEKLQEFWRESKRQCAKNRAHEVFPHVTLCDFFTCEDQKVECLYEALKRAGDRLLGSFPTAVPLALHSSISYLGFFVSGSPADVIREFAMTFATEASLLAGTSVSRFWIFSQVPGHGPNLRLSNLTRASFVSHYILQKYCSVKPCTKQLHLTLAHKFYPHHQRTLEQLARAIPLGHSCQWTAALYSRDMRFVHYQTLRALFQYKPQNVDELTLSPGDYIFVDPTQQDEASEGWVIGISQRTGCRGFLPENYTDRASESDTWVKHRMYTFSLATDLNSRKDGEASSRCSGEFLPQTARSLSSLQALQATVARKSVLVVRHGERVDQIFGKAWLQQCSTPDGKYYRPDLNFPCSLPRRSRGIKDFENDPPLSSCGIFQSRIAGDALLDSGIRISSVFASPALRCVQTAKLILEELKLEKKIKIRVEPGIFEWTKWEAGKTTPTLMSLEELKEANFNIDTDYRPAFPLSALMPAESYQEYMDRCTASMVQIVNTCPQDTGVILIVSHGSTLDSCTRPLLGLPPRECGDFAQLVRKIPSLGMCFCEENKEEGKWELVNPPVKTLTHGANAAFNWRNWISGN
Take B2: the binding entry in assay [3], in assay [1] and in assay [4] was “binds” in each case.

B3: 14-3-3 γ (protein, UniProt P61981 1-247)
chain: MVDREQLVQKARLAEQAERYDDMAAAMKNVTELNEPLSNEERNLLSVAYKNVVGARRSSWRVISSIEQKTSADGNEKKIEMVRAYREKIEKELEAVCQDVLSLLDNYLIKNCSETQYESKVFYLKMKGDYYRYLAEVATGEKRATVVESSEKAYSEAHEISKEHMQPTHPIRLGLALNYSVFYYEIQNAPEQACHLAKTAFDDAIAELDTLNEDSYKDSTLIMQLLRDNLTLWTSDQQDDDGGEGNN
As to B3, the binding entry in assay [3] and in assay [4] was “binds” each time.

B4: 14-3-3 η (protein, UniProt Q04917 1-246)
chain: MGDREQLLQRARLAEQAERYDDMASAMKAVTELNEPLSNEDRNLLSVAYKNVVGARRSSWRVISSIEQKTMADGNEKKLEKVKAYREKIEKELETVCNDVLSLLDKFLIKNCNDFQYESKVFYLKMKGDYYRYLAEVASGEKKNSVVEASEAAYKEAFEISKEQMQPTHPIRLGLALNFSVFYYEIQNAPEQACLLAKQAFDDAIAELDTLNEDSYKDSTLIMQLLRDNLTLWTSDQQDEEAGEGN
For the molecule B4, the binding entry in assay [3] and in assay [4] was “binds” in each case.

B5: 14-3-3 θ (protein, UniProt P27348 1-245)
chain: MEKTELIQKAKLAEQAERYDDMATCMKAVTEQGAELSNEERNLLSVAYKNVVGGRRSAWRVISSIEQKTDTSDKKLQLIKDYREKVESELRSICTTVLELLDKYLIANATNPESKVFYLKMKGDYFRYLAEVACGDDRKQTIDNSQGAYQEAFDISKKEMQPTHPIRLGLALNFSVFYYEILNNPELACTLAKTAFDEAIAELDTLNEDSYKDSTLIMQLLRDNLTLWTSDSAGEECDAAEGAEN
Turning to B5, the binding result in assay [3] and in assay [4] was “binds” throughout.
